In one experiment the test system is P. falciparum Dd2. Kind of experiment: P. falciparum growth inhibition assay, [3H] hypoxanthine incorporation, Dd2 line. In kind it is cell-based. The settings on record: Plasmodium falciparum, DD2, read-out: P. falciparum IC50 Dd2.
Experiment [1] has as its system asexual-stage P. falciparum. Kind of experiment: P. falciparum asexual-stage growth inhibition, line not specified or both lines. The experiment is classed as cell-based. The conditions noted are these: Plasmodium falciparum, in Homo sapiens, read-out: P. falciparum IC90.
The test system of experiment [2] is T. b. brucei 427 bloodstream trypanosomes. Kind of experiment: T. b. brucei growth inhibition assay. In kind it is cell-based. The settings on record: Trypanosoma brucei, 48 h, read-out: T. b. brucei IC50.
For experiment [3], the system named is Neonatal foreskin fibroblast (NFF) cells. Kind of experiment: NFF cytotoxicity assay. In kind it is cell-based. The settings on record: Homo sapiens, 72 h, read-out: Mammalian cell IC50 NFF.
A further experiment concerns HEK293 cells. Kind of experiment: HEK293 cytotoxicity assay. The experiment is classed as cell-based. The conditions noted are these: Homo sapiens, HEK293, 48 h, read-out: Mammalian cell IC50 HEK 293.
The next experiment has as its system early stage gametocytes. The settings on record: read-out: Early stage gametocytes IC50; ref Trenholme et al., 2014; cited from earlier work.

Results on one compound are retold here after publication PMC4506969 (International Journal for Parasitology: Drugs and Drug …, 2015).

A word on the IC50: it is the concentration that inhibits the measured activity by half. The term IC90 denotes the point of the concentration-response curve where the effect stands at 90%. Turning to `O=C(CCCCCCC(=O)Nc1ccccc1)NO` [Vorinostat, suberoylanilide hydroxamic acid], the IC50 in the experiment with P. falciparum Dd2 is 0.19 µM; in experiment [2], 9.03 µM; in experiment [3], 5.5 µM; in the experiment with HEK293 cells, 5.17 µM; with early stage gametocytes it was 1.41 µM. Further, the IC90 in experiment [1] was 0.24 µM.
